In the supplement of paper PMC6411743 one finds NP40-soluble protein abundance data, which are given here for 18 targets.

Protein sequences, listed by entry. Tags and fused reporters are not part of them. Lines headed by an entry give the natural chain unless they say otherwise; changes in a name come on top.
UniProt Q9BZG8: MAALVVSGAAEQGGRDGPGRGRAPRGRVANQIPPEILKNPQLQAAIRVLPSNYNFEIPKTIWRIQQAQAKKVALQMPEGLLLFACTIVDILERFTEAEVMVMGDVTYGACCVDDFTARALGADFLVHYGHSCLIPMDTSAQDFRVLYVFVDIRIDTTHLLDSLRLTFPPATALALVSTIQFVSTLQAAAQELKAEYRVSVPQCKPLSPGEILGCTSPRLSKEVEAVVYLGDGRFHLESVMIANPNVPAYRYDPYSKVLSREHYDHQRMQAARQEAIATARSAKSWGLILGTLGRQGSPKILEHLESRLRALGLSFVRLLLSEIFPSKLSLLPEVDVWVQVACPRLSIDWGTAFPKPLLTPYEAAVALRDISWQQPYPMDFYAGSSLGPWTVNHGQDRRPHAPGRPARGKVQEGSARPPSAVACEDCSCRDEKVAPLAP
UniProt O43169: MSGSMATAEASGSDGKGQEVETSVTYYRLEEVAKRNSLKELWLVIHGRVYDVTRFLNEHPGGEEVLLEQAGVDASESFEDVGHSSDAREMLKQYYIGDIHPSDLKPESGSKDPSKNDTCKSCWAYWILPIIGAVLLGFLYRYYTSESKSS
UniProt Q8WYJ6: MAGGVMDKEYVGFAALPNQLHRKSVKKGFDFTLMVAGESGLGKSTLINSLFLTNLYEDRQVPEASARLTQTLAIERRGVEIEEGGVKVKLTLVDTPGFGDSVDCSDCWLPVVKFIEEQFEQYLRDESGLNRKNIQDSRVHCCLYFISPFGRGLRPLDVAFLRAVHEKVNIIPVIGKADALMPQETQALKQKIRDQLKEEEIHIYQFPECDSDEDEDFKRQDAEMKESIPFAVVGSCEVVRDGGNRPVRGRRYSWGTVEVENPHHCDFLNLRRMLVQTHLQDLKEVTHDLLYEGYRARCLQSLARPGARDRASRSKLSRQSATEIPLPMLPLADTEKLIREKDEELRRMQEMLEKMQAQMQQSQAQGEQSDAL
UniProt P38159: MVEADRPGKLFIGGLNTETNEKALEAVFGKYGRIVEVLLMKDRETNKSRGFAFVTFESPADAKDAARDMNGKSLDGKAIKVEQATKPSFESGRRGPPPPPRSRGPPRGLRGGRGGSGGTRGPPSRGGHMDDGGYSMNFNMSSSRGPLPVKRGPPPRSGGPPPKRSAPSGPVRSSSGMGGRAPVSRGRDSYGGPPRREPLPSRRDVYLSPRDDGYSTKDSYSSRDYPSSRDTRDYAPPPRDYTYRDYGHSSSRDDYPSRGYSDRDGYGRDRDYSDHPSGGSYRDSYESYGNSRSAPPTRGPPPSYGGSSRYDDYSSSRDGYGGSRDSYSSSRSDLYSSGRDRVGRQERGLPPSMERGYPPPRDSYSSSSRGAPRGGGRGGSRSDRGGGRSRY
UniProt Q9H9Q2: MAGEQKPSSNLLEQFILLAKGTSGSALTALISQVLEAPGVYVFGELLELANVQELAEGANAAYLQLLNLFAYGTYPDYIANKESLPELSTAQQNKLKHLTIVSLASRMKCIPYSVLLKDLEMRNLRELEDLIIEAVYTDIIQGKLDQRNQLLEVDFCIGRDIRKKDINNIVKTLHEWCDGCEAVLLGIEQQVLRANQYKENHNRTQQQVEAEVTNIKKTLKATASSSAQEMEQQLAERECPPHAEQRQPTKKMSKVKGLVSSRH
UniProt Q99081: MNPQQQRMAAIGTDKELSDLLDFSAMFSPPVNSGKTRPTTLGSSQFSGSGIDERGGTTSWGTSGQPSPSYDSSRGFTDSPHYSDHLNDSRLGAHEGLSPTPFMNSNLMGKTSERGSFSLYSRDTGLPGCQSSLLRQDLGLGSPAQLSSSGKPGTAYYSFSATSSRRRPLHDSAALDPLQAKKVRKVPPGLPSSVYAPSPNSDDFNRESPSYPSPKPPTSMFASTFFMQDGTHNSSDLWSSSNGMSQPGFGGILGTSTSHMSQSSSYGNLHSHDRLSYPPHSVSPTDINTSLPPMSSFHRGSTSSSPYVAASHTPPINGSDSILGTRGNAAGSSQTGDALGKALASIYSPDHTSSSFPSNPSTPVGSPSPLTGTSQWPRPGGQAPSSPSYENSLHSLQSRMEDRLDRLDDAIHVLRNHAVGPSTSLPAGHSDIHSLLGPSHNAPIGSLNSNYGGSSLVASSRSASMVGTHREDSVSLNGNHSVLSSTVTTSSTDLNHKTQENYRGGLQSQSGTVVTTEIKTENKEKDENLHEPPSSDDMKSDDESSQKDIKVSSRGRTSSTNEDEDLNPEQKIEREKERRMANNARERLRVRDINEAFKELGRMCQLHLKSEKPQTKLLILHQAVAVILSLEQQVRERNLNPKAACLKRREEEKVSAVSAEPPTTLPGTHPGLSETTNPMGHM
UniProt Q9UKF6: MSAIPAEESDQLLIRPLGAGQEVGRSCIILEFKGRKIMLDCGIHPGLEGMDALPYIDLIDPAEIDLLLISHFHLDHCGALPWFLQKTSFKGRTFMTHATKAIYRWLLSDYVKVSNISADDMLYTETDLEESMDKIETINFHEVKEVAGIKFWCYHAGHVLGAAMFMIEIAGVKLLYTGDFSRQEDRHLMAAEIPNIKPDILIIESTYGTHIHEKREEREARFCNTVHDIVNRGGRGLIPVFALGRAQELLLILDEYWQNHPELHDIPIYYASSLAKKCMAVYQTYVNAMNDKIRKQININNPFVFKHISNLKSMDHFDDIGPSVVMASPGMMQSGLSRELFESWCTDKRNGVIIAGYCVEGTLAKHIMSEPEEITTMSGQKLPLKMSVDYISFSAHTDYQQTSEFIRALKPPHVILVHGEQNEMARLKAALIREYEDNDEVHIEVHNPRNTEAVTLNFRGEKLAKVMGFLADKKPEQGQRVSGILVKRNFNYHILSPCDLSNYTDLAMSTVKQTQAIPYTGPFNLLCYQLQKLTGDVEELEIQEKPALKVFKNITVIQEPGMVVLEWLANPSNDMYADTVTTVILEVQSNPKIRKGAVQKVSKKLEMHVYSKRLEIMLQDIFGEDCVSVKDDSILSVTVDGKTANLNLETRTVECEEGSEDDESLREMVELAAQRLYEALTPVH
UniProt Q9Y592: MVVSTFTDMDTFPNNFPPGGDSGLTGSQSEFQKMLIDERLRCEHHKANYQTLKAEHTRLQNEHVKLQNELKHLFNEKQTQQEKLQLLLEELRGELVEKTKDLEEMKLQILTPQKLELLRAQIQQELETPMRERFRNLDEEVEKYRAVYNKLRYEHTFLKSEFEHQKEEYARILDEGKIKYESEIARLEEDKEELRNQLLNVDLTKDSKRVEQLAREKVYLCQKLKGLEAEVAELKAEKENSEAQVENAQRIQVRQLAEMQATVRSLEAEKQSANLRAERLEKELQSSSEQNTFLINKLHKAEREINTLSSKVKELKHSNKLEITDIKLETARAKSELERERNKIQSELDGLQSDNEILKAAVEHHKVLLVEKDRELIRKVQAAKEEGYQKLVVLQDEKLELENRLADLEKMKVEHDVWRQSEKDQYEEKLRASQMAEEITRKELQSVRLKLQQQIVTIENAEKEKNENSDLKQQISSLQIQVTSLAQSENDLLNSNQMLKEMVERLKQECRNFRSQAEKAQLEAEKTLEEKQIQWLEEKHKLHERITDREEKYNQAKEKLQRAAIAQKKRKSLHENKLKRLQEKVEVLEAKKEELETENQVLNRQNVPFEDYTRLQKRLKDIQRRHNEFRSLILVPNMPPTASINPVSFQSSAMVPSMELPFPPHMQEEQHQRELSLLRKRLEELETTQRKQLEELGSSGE
UniProt Q9NUU7: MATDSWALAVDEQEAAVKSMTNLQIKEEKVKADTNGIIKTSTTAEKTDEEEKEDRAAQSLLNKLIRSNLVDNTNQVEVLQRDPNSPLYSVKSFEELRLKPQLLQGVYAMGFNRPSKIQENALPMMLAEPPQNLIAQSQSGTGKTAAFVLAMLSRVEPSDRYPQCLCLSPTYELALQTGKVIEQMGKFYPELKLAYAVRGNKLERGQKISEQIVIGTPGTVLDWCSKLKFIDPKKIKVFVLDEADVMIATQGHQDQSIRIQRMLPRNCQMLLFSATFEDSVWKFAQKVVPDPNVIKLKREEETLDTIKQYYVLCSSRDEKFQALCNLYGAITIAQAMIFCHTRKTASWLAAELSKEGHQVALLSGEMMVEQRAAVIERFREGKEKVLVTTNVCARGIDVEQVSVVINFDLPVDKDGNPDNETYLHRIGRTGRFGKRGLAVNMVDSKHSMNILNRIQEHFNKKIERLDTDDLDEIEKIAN
UniProt Q8WWI1: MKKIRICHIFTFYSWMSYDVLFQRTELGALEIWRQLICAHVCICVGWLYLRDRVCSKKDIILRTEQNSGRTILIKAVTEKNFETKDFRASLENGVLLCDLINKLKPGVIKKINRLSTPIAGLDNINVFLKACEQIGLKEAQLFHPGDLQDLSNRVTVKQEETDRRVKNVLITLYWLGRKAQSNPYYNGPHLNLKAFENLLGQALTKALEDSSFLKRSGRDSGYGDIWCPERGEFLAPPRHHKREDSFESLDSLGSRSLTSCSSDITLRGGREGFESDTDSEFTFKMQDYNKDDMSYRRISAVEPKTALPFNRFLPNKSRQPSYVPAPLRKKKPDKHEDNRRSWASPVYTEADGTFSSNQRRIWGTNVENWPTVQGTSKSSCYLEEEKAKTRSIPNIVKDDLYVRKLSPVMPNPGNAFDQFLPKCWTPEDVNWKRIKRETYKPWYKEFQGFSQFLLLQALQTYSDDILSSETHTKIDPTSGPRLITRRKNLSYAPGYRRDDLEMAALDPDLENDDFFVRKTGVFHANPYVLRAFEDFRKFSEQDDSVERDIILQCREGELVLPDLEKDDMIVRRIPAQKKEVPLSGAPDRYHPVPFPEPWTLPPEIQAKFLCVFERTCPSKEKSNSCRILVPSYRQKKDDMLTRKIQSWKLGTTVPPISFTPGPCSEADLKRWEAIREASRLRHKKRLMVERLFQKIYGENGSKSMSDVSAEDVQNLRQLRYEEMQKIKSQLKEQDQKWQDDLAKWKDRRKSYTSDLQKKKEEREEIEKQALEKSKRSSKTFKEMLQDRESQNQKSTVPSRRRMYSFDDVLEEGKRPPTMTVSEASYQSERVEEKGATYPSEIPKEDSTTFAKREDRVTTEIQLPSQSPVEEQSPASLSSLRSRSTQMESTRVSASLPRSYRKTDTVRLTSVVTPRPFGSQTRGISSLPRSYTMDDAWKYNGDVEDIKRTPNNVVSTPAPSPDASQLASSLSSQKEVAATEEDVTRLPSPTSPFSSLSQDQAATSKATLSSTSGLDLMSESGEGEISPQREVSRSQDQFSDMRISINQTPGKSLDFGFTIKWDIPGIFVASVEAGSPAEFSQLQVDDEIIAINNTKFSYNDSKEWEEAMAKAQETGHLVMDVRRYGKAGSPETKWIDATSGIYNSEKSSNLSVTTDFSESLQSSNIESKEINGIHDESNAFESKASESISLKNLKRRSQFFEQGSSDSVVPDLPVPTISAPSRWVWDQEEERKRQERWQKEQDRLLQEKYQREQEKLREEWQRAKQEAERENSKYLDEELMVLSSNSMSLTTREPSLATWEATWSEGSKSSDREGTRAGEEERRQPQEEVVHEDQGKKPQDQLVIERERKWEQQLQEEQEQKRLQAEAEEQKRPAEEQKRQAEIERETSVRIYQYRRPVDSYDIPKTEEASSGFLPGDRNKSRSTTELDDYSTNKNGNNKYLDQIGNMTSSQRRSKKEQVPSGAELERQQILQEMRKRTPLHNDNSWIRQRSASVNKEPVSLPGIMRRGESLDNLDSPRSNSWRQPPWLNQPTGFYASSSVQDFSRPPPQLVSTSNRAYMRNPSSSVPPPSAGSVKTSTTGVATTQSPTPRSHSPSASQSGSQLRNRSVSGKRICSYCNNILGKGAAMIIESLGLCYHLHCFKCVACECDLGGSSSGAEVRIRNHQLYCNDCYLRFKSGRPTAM
UniProt Q03252: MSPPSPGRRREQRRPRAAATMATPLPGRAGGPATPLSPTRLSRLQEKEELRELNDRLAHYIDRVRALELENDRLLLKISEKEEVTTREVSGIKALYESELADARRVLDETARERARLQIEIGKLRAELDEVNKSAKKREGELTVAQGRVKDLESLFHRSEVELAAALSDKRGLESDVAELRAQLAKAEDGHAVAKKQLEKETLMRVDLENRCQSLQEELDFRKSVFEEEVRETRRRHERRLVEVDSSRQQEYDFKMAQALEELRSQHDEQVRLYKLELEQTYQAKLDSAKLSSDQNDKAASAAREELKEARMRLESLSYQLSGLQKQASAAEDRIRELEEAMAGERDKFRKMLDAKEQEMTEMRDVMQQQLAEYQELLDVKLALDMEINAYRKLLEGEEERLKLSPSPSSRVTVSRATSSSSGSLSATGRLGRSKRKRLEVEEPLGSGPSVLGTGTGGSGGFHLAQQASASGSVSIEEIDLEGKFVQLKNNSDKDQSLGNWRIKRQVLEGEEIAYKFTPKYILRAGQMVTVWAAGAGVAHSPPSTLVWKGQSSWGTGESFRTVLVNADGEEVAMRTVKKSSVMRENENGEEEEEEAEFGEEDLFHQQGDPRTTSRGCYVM

± gives the standard deviation of the averaged measurements. The list shows a part of the results, in another mix than the full data. Most values lie at the level of the controls, where differences are scatter.

Compound in the test: Nc1ncnc2c1ncn2[C@@H]1O[C@H](COP(=O)(O)OP(=O)(O)OP(=O)(O)O)[C@@H](O)[C@H]1O [adenosine triphosphate]
The experiment in a line: NP40-soluble protein abundance relative to vehicle (solubility fold change) (ratio); higher = more soluble protein in presence of ATP. Conditions: concentration: 0.5mM. In outline: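 Eight concentrations, 0.1 to 10 mM, were tested on Jurkat crude lysate for 10 min at room temperature and then 3 min at 37 °C, in three independent experiments. The lysate was solubilised with 0.8% NP40 and benzonase, ultracentrifuged, and the supernatant TMT-labelled for LC-MS/MS. Each value is the fold change against the detergent-processed vehicle in its own replicate, from vsn-normalised intensities.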
For “I3L1H5 and related entries (UniProt Q9BZG8)”, the NP40-soluble protein abundance was 0.966 ± 0.12. The result for “H3BUX2 and related entries (UniProt O43169)” reads 0.797 ± 0.17. The result for “I3L2M1 and related entries (UniProt Q8WYJ6)” reads 0.989 ± 0.017; that for “H0Y6E7 and related entries (UniProt P38159)”, 1.08 ± 0.018; that for “H7C3Q6 and related entries (UniProt Q8WV92)”, 1.6 ± 0.46. The result for “G8JLQ3 and related entries (UniProt P78537)” reads 0.829 ± 0.18.

On to “J3KQ34 and related entries (UniProt Q9H9Q2)”, for which the NP40-soluble protein abundance came to 0.854 ± 0.11. With “J3KTE4 and related entries (UniProt P84098)”, the NP40-soluble protein abundance came to 1.03 ± 0.052. As for “I3L0W4 and related entries (UniProt Q96F10)”, the NP40-soluble protein abundance was 0.951 ± 0.018. The result for “H0YNP8 and related entries (UniProt Q99081)” reads 0.978 ± 0.012. For “K7ES61 and related entries (UniProt Q9BYD3)”, the NP40-soluble protein abundance is 0.981 ± 0.12. The result for “G5E9W3 and related entries (UniProt Q9UKF6)” reads 1.08 ± 0.052; that for “J3KNW7 and related entries (UniProt Q9Y592)”, 1.02 ± 0.064. The result for “I3L0H8 and related entries (UniProt Q9NUU7)” reads 1.07 ± 0.045; that for “J3KPP4 and related entries (UniProt O95232)”, 1.98 ± 0.17; that for “J3KP06 and related entries (UniProt Q8WWI1)”, 1.19 ± 0.034. For the target “H7C0H2 and related entries (UniProt Q96EV2)”, the NP40-soluble protein abundance is 0.968 ± 0.026.

On to “J9JID7 and related entries (UniProt Q03252)”, for which the NP40-soluble protein abundance was 1.03 ± 0.024.
